Measured values as given in article PMC6926074.
These are yes or no findings as the source states them, for the method shown. Binding seen in cells or lysates may run through a third protein. Some results given as binding are weak or reduced against the parent protein; the word gives no strength. For part of these data: Sequences can lack the tags named with a protein. Each block holds one molecule with its values, some of them ahead of it.

The chains behind the UniProt entries cited, without tags or fusion partners.
UniProt P41279: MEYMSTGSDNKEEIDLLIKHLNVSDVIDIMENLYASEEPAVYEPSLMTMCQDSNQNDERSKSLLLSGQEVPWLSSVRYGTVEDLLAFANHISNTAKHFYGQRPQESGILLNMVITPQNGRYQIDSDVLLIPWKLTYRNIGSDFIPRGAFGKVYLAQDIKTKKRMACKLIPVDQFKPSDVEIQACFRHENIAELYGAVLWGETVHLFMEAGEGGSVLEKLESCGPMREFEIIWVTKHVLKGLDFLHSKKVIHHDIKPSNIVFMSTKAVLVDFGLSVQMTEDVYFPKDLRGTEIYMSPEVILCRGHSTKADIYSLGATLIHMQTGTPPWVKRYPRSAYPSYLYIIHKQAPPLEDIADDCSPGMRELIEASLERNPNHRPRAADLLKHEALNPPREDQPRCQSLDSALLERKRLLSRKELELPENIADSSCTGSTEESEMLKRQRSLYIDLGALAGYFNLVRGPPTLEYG
UniProt Q63562: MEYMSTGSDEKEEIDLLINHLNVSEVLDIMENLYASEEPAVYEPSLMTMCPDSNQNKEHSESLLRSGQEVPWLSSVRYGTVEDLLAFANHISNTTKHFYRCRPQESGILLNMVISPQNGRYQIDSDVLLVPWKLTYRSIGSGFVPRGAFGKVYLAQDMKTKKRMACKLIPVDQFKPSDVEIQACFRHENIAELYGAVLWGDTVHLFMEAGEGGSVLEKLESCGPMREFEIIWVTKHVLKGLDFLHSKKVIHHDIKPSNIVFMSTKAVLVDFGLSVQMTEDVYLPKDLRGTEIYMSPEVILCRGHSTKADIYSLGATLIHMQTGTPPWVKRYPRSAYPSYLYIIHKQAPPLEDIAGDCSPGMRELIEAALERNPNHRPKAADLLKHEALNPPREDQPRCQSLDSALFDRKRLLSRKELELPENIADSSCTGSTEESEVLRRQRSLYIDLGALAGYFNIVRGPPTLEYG

Columns and labels:
FLAG-BCL-3 = molecular target: T1, FLAG-BCL-3 (UniProt P20749); experiment: co-IP; HEK293T cells transfected 24 h; FLAG-BCL-3 immunoprecipitated, immunoblot with anti-TPL-2 antibody
T1 sequence: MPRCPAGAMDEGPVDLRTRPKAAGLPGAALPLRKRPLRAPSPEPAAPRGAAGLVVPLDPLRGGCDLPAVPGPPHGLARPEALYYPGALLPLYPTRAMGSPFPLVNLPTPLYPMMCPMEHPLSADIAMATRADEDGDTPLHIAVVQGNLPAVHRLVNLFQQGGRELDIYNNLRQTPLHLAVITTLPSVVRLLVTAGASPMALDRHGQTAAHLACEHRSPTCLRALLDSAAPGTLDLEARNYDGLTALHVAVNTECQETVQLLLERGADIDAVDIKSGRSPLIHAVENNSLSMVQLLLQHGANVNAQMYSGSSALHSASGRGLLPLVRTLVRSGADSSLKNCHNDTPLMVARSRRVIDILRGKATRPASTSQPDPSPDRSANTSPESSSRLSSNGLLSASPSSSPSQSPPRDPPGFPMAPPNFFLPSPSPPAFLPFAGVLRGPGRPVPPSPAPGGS

[1] = molecular target: T2, FLAG-BCL-3 (in Nfkb1-/- MEFs) (UniProt P20749); experiment: co-IP; Nfkb1-/- MEFs transfected 24 h, pretreated with 20 uM MG132 for 2 h; FLAG-BCL-3 immunoprecipitated, immunoblot with anti-TPL-2 antibody
T2 sequence: T1 sequence

[2] = molecular target: endogenous TPL-2 (human (endogenous in THP-1)) (UniProt P41279); experiment: co-IP; THP-1 lysates; endogenous TPL-2 immunoprecipitated, immunoblot with anti-BCL-3 antibody; immunizing TPL-2 peptide as specificity control

binding (FLAG-BCL-3): binds
Molecule: TPL-2 (from UniProt Q63562 1-467) (enzyme)

binding [1]: binds
Molecule: TPL-2 (in Nfkb1-/- MEFs) (from UniProt Q63562 1-467) (enzyme)

binding [2]: binds
B1: endogenous BCL-3 (protein, UniProt P20749 1-454)
chain: T1 sequence
